## Screening data, single-dose tests

Protein sequences, listed by entry. Tags and fused reporters are not part of them. Residues count along the entry.
UniProt P9WNZ1, whole entry: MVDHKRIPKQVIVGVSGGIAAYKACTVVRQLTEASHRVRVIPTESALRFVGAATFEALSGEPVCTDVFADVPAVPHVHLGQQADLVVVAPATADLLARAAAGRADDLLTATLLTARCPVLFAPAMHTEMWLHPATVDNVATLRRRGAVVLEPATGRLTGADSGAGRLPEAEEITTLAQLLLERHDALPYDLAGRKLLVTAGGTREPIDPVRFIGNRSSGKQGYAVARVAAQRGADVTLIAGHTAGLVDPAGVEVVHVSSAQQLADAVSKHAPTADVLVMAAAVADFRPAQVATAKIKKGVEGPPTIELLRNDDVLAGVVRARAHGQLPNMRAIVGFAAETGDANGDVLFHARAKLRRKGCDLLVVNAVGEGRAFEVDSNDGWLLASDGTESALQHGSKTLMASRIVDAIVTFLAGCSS
UniProt A4I591, 1-473: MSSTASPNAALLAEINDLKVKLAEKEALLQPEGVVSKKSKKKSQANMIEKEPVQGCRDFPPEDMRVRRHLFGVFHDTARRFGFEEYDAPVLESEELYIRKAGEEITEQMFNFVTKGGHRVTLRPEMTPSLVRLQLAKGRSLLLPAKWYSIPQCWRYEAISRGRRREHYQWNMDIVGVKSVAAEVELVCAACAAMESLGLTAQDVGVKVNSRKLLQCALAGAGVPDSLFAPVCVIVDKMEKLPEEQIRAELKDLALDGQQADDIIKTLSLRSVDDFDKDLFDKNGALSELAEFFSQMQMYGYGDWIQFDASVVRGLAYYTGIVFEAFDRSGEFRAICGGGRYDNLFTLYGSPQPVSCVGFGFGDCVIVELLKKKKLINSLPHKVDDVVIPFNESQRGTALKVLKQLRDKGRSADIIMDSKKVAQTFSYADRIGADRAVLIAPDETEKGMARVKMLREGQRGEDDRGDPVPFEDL

Data taken from ChEMBL document CHEMBL3988442, “University of Dundee, Small-Polar-MMV Screening Library” (2021).

The filed quantity is “Percent Effect” (%).
The record does not define 0% and 100%; most values in the screen are far below 50% and negative numbers occur (in some assays of this library far below -100).
Compounds were drawn at random from those tested, without regard to their results.
Two or more numbers in one place are separate tests of the same structure; such repeats can differ widely.
A dash means the value is not listed here; it may have been measured.

CoaBC: 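Enzyme assay of CoaBC with a phosphate dye (Biomol Green) read at 650 nm. Target: Coenzyme A biosynthesis protein CoaBC, Mycobacterium tuberculosis (UniProt P9WNZ1). Concentration: 30 µM. Direction is inferred from only a few compounds that gave an IC50; most scored high, so higher reads as stronger inhibition. Most strong results did not repeat in a second test. Size under these conditions: about 67,000 compounds, about 40 of them at 50% or above in at least one test.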
LiHisRS: 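Histidine-tRNA ligase, Leishmania infantum (UniProt A4I591). Enzyme assay of histidyl-tRNA synthetase; the read-out is not stated. Tested at 30 µM. Direction is inferred from retests: higher values go with stronger inhibition. The assay is labelled LdHisRS but filed under L. infantum. About 69,000 compounds were tested under these conditions; 0.6% (about 410) showed 50% or more at least once.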
Leishmania in macrophages: 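Cell assay of Leishmania donovani living inside macrophages; the read-out is not stated. Concentration: 30 µM. Direction is inferred from retests: higher values go with stronger inhibition. Size under these conditions: about 69,000 compounds, about 1,000 of them at 50% or above in at least one test.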

Compound | CoaBC | LiHisRS | Leishmania in macrophages
Cc1cc(S(=O)(=O)N2CC[C@@H](O)C2)c(Cl)cc1F | 1.242 | 9.524 | 26.88
CCNc1ccnc(NCC2CNCCO2)n1 (stereo not given) | -10.43 | 4.712 | 25.51
Cc1cc(CNC(=O)Nc2cc(F)cc(N3CCCC3)c2)no1 | 0.9756 | 14.4 | -48.41
Cc1cccc2nc(CN3CCC(Cn4ccnn4)CC3)cc(=O)n12 | 5.423 | 30 | 20.24
CC(C)N1CCc2[nH]nc(C(=O)N3CCCC3C)c2C1 (stereo not given) | -1.527 | 17.48 | 9.285
CC(C)Oc1cccc(C(=O)C2CCCN(C(=O)c3ccccn3)C2)c1 (stereo not given) | -5.757 | 9.615 | 25.42
CCOc1ccc(Cl)c(C(=O)N2CCCN(CC(N)=O)CC2)n1 | 1.161 | 12.17 | -7.749
Cc1cc(Cn2c(=O)c3c(C(F)(F)F)cc(C)nc3n2C)on1 | -4.206 | 15.04 | -22.02
Cn1ccc(C(=O)NC2CCC23CCN(Cc2ccc(F)cc2)CC3)c1 (stereo not given) | -5.008 | 22.34 | -
Cc1cc(C2CCC2)nc(N2CCN(Cc3nccn3C)CC2)n1 | 8.481 | 18.18 | -12.65
C1CN(CC2CCOCC2)Cc2c(COCC3CC3)nnn2C1.O=C(O)C(F)(F)F | - | - | 9.688
CCCn1nc(C)c(CNC(=O)c2snnc2C)c1C | -0.7453 | 12.7 | 32.6
CCN1CC2(CC1=O)CN(Cc1ccc(C)o1)CCN(C(=O)C(C)C)C2 (stereo not given) | 7.769 | 12.82 | -
COc1ccc(C[C@H]2CNCC[C@@H]2OC)cc1.O=C(O)C(F)(F)F | - | - | -1.312
Cc1ccc(C(=O)Nc2nnc(C(C)C)s2)c(-n2cnnn2)c1C | 0.9639 | -29.67 | -41.73
CCn1nc(C)c(CCNC(=O)c2coc(CN3CCOCC3)c2)c1C | 4.016 | 1.493 | 16.49
O=C(NCCNc1ncccn1)N1CCCC(C(F)(F)F)C1 (stereo not given) | -9.595 | 21.15 | 21.89
COc1cc(C(=O)NC(CC(=O)O)c2cccs2)cc(Cl)c1OC (stereo not given) | -1.044 | 13.51 | 11.6
CC(CNC(=O)Nc1cn[nH]c1)N1CCOCC1 (stereo not given) | 6.154 | 13.33 | 7.425
Clc1ccc(OCCCN2CCN(c3cnccn3)CC2)cc1 | 3.426 | 25 | 2.457
CN(C)C(=O)c1cccc(CN2CCOC(Cn3cccn3)C2)c1 (stereo not given) | -0.129 | 5.217 | 6.406
Clc1ccc(CN2CCCC(Cn3cncn3)C2)c2ncccc12 (stereo not given) | -32.27 | 14.15 | 30.9
Cc1cccc(Cn2c3c(ccc2=O)CCN(Cc2ccoc2)CC3)n1 | 3.656 | 15.24 | -
CCN(CC)C(C(=O)NCc1ccc(N2CCCC2)nc1)C(C)C (stereo not given) | 2.728 | 14.29 | 21.01
Cl.O=C1CC2(CCCNC2)C(=O)N1Cc1cccc(F)c1 (stereo not given) | - | - | 7.695
[H][C@]12CCCN(S(=O)(=O)c3cccc(F)c3)[C@@]1([H])CN(C(=O)C1CC1)C2 | - | - | 35
CN(C)[C@@H]1CCN(c2ncccn2)[C@H]1Cc1cccnc1 | -5.806 | 19.44 | -
O=C(NCc1nnc2n1CCCC2)N1CCc2sccc2C1 | -3.485 | 10.26 | -2.803
C=C(C)COc1cccc(C(=O)N(CC)Cc2nccn2C)c1 | 2.927 | 3.2 | 27.54
CS(=O)(=O)CCNCc1ccc(OCc2ccccn2)cc1 | -2.415 | 9.091 | -8.271
CC(C)n1ccc(CN2CCOC(CNc3cccnn3)C2)n1 (stereo not given) | -2.5 | 19.64 | -3.927
CN(C)CCN(Cc1ccc(Cl)cc1)C(=O)c1cc[nH]n1 | -2.954 | 16.35 | 3.408
O=C(c1cccc(F)c1)N1CCCN(Cc2cscn2)CC1 | -14.21 | 15.38 | 0.06137
CC(C)NC(=O)NCCn1cnc(C2CCCC2)cc1=O | -2.326 | 8.696 | 10.01 & 0.2672
CN(Cc1ccc(F)cc1)C(=O)CN1CCOC(Cn2cncn2)C1 (stereo not given) | 1.028 | -7.865 | -6.751
COc1ccc(CNC(Cc2ccsc2)c2ccc(C)cn2)c(OC)c1 (stereo not given) | 9.264 | 11.27 | 62.45
CCOc1ccc(C(=O)CC(SC2CCCCC2)C(=O)O)cc1 (stereo not given) | 12.2 | 6.25 | 1.286
O=C1CC(c2ccccc2)c2c(c(C(=O)O)cn2-c2ccccc2)N1 (stereo not given) | 2.3 | 9.783 | 31.07
O=C(c1cccn1Cc1cccs1)N1CCSCC1 | -1.434 | -3.846 | -32.8
Cn1c(CN2CCOCC2)nnc1C1CCCN(CC(N)=O)C1 (stereo not given) | -3.175 | 8.333 | -3.299
O=C(O)C(F)(F)F.[H][C@]12CCN(S(=O)(=O)c3cccs3)C[C@@]1([H])OCCN(CC)C2 | - | - | 21.79
[H][C@@]12CN(C(=O)NC3CC3)C[C@]1([H])C(=O)N(c1ccccc1)C2 | - | - | 19.59
COCCc1ncc(-c2c(C#N)c(N)nc3c2CCc2[nH]ccc2-3)cn1 | 10.68 | 102.6 | -5.798
COCC(=O)N1CCN(CCn2cccn2)c2nc(C)ccc2C1 | -5.432 | 13.89 | -
Cc1cccnc1CNC[C@H]1Cn2cc(-c3ccccc3)nc2CO1 | 5.519 | 14.86 | 24.21
O=C(O)C(F)(F)F.O=C(O)C(F)(F)F.[H][C@@]12CCN(CC3CC3)[C@]1([H])CC[C@H](C(=O)NCCc1ccncc1)O2 | - | - | 15.12
COCC1CC2(CCN(C(=O)c3ccc(OC)c(Cl)c3)CC2)CO1 (stereo not given) | 1.901 | 12.62 | -5.739
COc1ccc(N2CCN(C(=O)Cn3nc(C)c(Cl)c3C)CC2)cc1 | 3.559 | 19.47 | 15.45
c1cncc(CN2CCC(c3csc4nccn34)CC2)c1 | 5.502 | 11.51 | 0.1875
CCCC1(NC(=O)C(c2ccc(F)cc2)N(C)C)CC1 (stereo not given) | -3.823 | 0 | 8.739
CCc1n[nH]c(C2CN(C(=O)c3ccnc(C)n3)CCO2)n1 (stereo not given) | -0.2389 | 13.46 | 3.998

The last 6 entries again:

| Compound | CoaBC | LiHisRS | Leishmania in macrophages |
|---|---|---|---|
| `O=C(O)C(F)(F)F.O=C(O)C(F)(F)F.[H][C@@]12CCN(CC3CC3)[C@]1([H])CC[C@H](C(=O)NCCc1ccncc1)O2` | - | - | 15.12 |
| `COCC1CC2(CCN(C(=O)c3ccc(OC)c(Cl)c3)CC2)CO1` (stereo not given) | 1.901 | 12.62 | -5.739 |
| `COc1ccc(N2CCN(C(=O)Cn3nc(C)c(Cl)c3C)CC2)cc1` | 3.559 | 19.47 | 15.45 |
| `c1cncc(CN2CCC(c3csc4nccn34)CC2)c1` | 5.502 | 11.51 | 0.1875 |
| `CCCC1(NC(=O)C(c2ccc(F)cc2)N(C)C)CC1` (stereo not given) | -3.823 | 0 | 8.739 |
| `CCc1n[nH]c(C2CN(C(=O)c3ccnc(C)n3)CCO2)n1` (stereo not given) | -0.2389 | 13.46 | 3.998 |